The record followed here is publication PMC7819943, “Rice protein-binding microarrays: a tool to detect cis-acting elements near promoter regions in rice”.

Protein sequences, listed by entry. Tags and fused reporters are not part of them.
UniProt Q0JBA9, entry or part of it: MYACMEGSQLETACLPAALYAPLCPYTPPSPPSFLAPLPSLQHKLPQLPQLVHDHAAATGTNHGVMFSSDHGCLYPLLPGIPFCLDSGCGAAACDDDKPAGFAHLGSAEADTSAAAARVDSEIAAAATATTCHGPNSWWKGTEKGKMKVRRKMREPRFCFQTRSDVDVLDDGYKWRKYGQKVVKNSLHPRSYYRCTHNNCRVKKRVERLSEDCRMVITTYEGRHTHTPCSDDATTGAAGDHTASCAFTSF

The other results are listed elsewhere or left out.

For this experiment, the target named is OsWRKY34 (Oryza sativa, UniProt Q0JBA9 1-250). Nature of the experiment: protein-binding microarray (RPBM); PBS, 2% BSA, 51.3 ng/ul salmon testes DNA, 50 uM zinc acetate, 200 nM TF, 25 C, 1 h; high values mean tight binding. To be noted: protein: recombinant; tags: N-terminal polyhistidine and DsRed monomer fusion (pET32a); label: CyDye5-dUTP incorporated in the synthesized complementary strand; 3' TTTTT single-stranded linker to array surface; dsDNA, one strand shown. A digest of the protocol: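 Binding signal is defined as the fluorescence intensity of each feature in arbitrary units, read on an Axon 4000B scanner. Transcription factors with N-terminal polyhistidine and DsRed fusions came from E. coli BL21-CodonPlus and were purified on Ni–NTA. They were incubated at 200 nM for 1 h at 25 °C on a custom Agilent array that had been made double-stranded with Cy5-dUTP, with 50 µM zinc acetate present, and the array was washed.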
For “ATCCCTCGTCTCCGCTATTTACTCCGTCAGTTGGCCAACTCGGAGTCACCTAGTGCAG”, the binding signal was 9690 fluorescence intensity (a.u.).
To “AGCGTATCACACAATATTAGTTAAATAAACTTCCTTTATTCGGAGTCACCTAGTGCAG” belongs 8480 fluorescence intensity (a.u.); to “GTTCTCGTATAAGGGTCGTGTCGAATGGGCCAAAAAAACCCGGAGTCACCTAGTGCAG”, 8050 fluorescence intensity (a.u.); to “CCTGCATCATCAATCTGCCTACATATCGATCGATTGATCTCGGAGTCACCTAGTGCAG”, 8480 fluorescence intensity (a.u.).
The value for “TGCGTGCGTCCATGTGTGTTCATTTGCATAATTGCATTGCCGGAGTCACCTAGTGCAG” was 9940 fluorescence intensity (a.u.); that for “GCAGATTTTGTTCTACTCTGTCCCACACTTTGTGGCCTCACGGAGTCACCTAGTGCAG” was 9450 fluorescence intensity (a.u.); that for “ACTTCTAACTTTTACATCACATCGAACTTTCTTACACACACGGAGTCACCTAGTGCAG” was 10500 fluorescence intensity (a.u.).
To “CCTCAAGACAGATCATCTCCTTTCGGTGCTTTGAAATTTTCGGAGTCACCTAGTGCAG” belongs 8560 fluorescence intensity (a.u.).
For the sequence “CGGGTATTCTCATCCTCATTCTCTCCGATCCCATTTCCCCCGGAGTCACCTAGTGCAG”, the binding signal is 9730 fluorescence intensity (a.u.).
The value for “CCCCGATGCGTTCTTATCCCCACGATTCATCCCACTGCATCGGAGTCACCTAGTGCAG” was 8130 fluorescence intensity (a.u.); that for “ACTCCGGTTTCGTCGTCCGTTTTGCCTCCGTCTCCGTCTCCGGAGTCACCTAGTGCAG” was 11300 fluorescence intensity (a.u.); that for “TTATCATTCTCTGTGCGCATACTTTTTAAATTGTTAAACGCGGAGTCACCTAGTGCAG” was 8860 fluorescence intensity (a.u.).
The value for “CGAGGTTGGATTTCGCGAGCACGCCCTTGTACACCCTGCCCGGAGTCACCTAGTGCAG” was 8770 fluorescence intensity (a.u.); that for “GCTTCTCCGCATCCATCAACCACTCACCCAGTTTTGCTGCCGGAGTCACCTAGTGCAG” was 11300 fluorescence intensity (a.u.); that for “CTCCTTCGTTCCGTGCTTGAAGAATTTGCCGGCGGCCATCCGGAGTCACCTAGTGCAG” was 9000 fluorescence intensity (a.u.).
“GATCCGTCTTTGGTCTCTGCGGCCTTCACCAGTGCTCTTCCGGAGTCACCTAGTGCAG”: the binding signal was 8580 fluorescence intensity (a.u.).
Consider “TTGCCATCCATCTTCATATATCTATCTCTCTATACTACCTCGGAGTCACCTAGTGCAG”, for which the binding signal is 8890 fluorescence intensity (a.u.).
The value for “TACAAAGTACTACCCCAGCAGCCACCTTTGCATTTTTGCACGGAGTCACCTAGTGCAG” was 10300 fluorescence intensity (a.u.).
The value for “TCAATTCGTTATTCTTTTCTTTCCTACTATAAATTTCAGTCGGAGTCACCTAGTGCAG” was 8310 fluorescence intensity (a.u.); that for “GCGTGTTGTACTGTTCTCCCGCGGTCCCGCCCGAGCAGAGCGGAGTCACCTAGTGCAG” was 8720 fluorescence intensity (a.u.); that for “ACCATCTATATACCTTCGGTGCATATCAATGCGAAAACACCGGAGTCACCTAGTGCAG” was 9440 fluorescence intensity (a.u.).
On to “GCCGGCCATGTCCGCCGCCCACGCCCACGCCCTGCAACGCCGGAGTCACCTAGTGCAG”, for which the binding signal is 11100 fluorescence intensity (a.u.).
The value for “CTAGATTTTTTGGTGACATTTTTTAGTTGGTGTGCACGTGCGGAGTCACCTAGTGCAG” was 10200 fluorescence intensity (a.u.).
To “TTTATGTTTCATATGCTTTCAGTGGTGCATTCTGTTTTTTCGGAGTCACCTAGTGCAG” belongs 12000 fluorescence intensity (a.u.); to “TTCGCGAGCTCTCCTGCCTCCGCGTCGTCTTGGAATTTTTCGGAGTCACCTAGTGCAG”, 8820 fluorescence intensity (a.u.).
The value for “TTTTTTCTTTTCTTGTAACCCGTCTCCTGCTTATTGAAAACGGAGTCACCTAGTGCAG” was 8680 fluorescence intensity (a.u.); that for “AAACATTATTTTCTCATCTCCTTTTAAATTTTATTTTTTTCGGAGTCACCTAGTGCAG” was 11000 fluorescence intensity (a.u.).
For “CCCGCCCACTCACCCGCCCACGCGGCTGCCAGCCTACCAACGGAGTCACCTAGTGCAG”, the binding signal was 8860 fluorescence intensity (a.u.).
To “AATCCATTTTTTGTCAGATTCCACACAACCACATCTTTTTCGGAGTCACCTAGTGCAG” belongs 8160 fluorescence intensity (a.u.).
The value for “TCCACCACCACCACCACCACCACAACGGCCACCACAAGCGCGGAGTCACCTAGTGCAG” was 9630 fluorescence intensity (a.u.); that for “TTTTTCCCCTTATTTTTTTTCTCAAAAATCCATTTCCCTCCGGAGTCACCTAGTGCAG” was 8180 fluorescence intensity (a.u.).
Consider “ACGGTTTCGTTTTTGTAAAACGGCGCCCATTTTTTTCTCTCGGAGTCACCTAGTGCAG”, for which the binding signal is 8200 fluorescence intensity (a.u.).
The value for “CTTGTTTCAGTGTTGACATTGGTTATTTCTCAATTCATTCCGGAGTCACCTAGTGCAG” was 9170 fluorescence intensity (a.u.); that for “ACCGTTGCTAATTTGCTATATATGCGAGCTTGCTGATCGACGGAGTCACCTAGTGCAG” was 8520 fluorescence intensity (a.u.); that for “CCTCTTCGGCCTCGCCGCGGCCTCCGCCTTGTCCGCGTCCCGGAGTCACCTAGTGCAG” was 8880 fluorescence intensity (a.u.).
To “TAATAGTGTACGATCCGCCGGTCATCATCTTCCTTGACGGCGGAGTCACCTAGTGCAG” belongs 8530 fluorescence intensity (a.u.); to “CGAATGGTGTATCTTTTAAATTGTGTGGTACCTAGTTGGGCGGAGTCACCTAGTGCAG”, 8950 fluorescence intensity (a.u.).
The value for “CCTTCGACCCGTCCCCTCACAAACGGCCGTTTCCCTCCCGCGGAGTCACCTAGTGCAG” was 9230 fluorescence intensity (a.u.); that for “GCAGTTTTTTTCTATGGACTCCTACCAACTCGGCCAACCACGGAGTCACCTAGTGCAG” was 9220 fluorescence intensity (a.u.); that for “CATTTTGACTGACGTGAATGGTGTATTTAGTTGTGGATATCGGAGTCACCTAGTGCAG” was 9690 fluorescence intensity (a.u.).
As for “ATGTTTTATTCTCAACTTATTATCTACTCCCTCCATTTCACGGAGTCACCTAGTGCAG”, the binding signal is 8620 fluorescence intensity (a.u.).
As to “TCCACAAGCATCTACCACCCACCACTCATCCGCAACCACACGGAGTCACCTAGTGCAG”, the binding signal is 9500 fluorescence intensity (a.u.).
